This passage reports binding results from PMC9803661.

In this assay the target is T1, Mage-D1 (MAGE family member D1; melanoma-associated antigen D1) (rat (endogenous in E19.5 d EMSCs)) (UniProt Q9ES73).
T1 sequence: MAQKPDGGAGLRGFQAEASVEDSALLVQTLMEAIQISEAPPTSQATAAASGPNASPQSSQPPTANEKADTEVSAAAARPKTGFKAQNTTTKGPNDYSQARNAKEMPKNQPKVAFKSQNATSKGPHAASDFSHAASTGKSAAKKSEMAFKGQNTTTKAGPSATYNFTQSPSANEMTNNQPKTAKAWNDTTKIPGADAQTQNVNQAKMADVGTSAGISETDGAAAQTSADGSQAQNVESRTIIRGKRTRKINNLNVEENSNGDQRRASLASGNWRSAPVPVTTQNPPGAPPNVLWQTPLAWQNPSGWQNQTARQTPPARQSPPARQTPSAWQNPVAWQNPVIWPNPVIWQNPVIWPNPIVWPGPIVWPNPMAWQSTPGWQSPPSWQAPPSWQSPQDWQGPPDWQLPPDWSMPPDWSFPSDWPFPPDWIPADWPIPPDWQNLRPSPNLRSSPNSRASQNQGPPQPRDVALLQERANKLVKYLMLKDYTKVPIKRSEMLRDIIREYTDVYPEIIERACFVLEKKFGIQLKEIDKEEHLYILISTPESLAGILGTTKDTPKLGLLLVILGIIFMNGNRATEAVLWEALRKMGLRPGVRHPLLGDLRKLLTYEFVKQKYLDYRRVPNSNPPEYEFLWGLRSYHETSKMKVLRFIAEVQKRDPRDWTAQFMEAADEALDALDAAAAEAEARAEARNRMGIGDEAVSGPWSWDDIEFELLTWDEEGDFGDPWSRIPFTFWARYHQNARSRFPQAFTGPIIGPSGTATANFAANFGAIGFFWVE
Kind of assay: co-IP; magnetic beads with rabbit polyclonal anti-Mage-D1 antibody (2 h), then E19.5 d rat EMSC protein lysate overnight at 4 °C; Western blot for p75NTR, Dlx1, Msx1.

No constants are given. Whether binding was seen depends on the method and setting. In cells and extracts the contact can be indirect. Binding calls can cover weak binding; strength is not graded here.

As to “msh homeobox 1 (Msx1) (rat (endogenous in E19.5 d EMSCs))”, the binding result is “binds”.
